From paper PMC9675789

Sequences of proteins named here, by UniProt entry; tags and fusion partners are left off. A change or cut given only in a name is not applied to a line headed by its entry. Residues count along the entry.
UniProt P54762: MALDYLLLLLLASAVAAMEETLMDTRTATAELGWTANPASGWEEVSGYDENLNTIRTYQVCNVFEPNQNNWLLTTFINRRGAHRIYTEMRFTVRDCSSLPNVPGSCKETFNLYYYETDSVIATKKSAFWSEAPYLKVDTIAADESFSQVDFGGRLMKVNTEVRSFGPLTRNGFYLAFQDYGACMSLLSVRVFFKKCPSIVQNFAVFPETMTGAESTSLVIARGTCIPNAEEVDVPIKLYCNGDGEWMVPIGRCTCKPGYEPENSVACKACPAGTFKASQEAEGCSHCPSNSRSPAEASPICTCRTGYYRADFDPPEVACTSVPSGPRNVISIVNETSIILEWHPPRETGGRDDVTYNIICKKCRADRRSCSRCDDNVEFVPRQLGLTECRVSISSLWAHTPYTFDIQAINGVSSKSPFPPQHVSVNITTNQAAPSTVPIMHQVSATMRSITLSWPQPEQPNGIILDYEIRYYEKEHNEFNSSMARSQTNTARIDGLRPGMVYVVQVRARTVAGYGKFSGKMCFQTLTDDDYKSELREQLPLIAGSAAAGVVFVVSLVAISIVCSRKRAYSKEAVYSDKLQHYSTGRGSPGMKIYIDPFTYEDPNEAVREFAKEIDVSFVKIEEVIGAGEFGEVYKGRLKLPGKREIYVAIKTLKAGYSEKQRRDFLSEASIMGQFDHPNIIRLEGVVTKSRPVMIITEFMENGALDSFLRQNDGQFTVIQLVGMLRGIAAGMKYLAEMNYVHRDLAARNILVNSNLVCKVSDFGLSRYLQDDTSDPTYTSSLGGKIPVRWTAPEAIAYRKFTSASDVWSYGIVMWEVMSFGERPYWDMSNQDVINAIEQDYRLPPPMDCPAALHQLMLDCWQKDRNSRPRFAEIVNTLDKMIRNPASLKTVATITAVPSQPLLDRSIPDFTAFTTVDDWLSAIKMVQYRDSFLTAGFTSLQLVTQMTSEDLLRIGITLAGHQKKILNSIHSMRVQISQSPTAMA
UniProt P52799, residues 28-333: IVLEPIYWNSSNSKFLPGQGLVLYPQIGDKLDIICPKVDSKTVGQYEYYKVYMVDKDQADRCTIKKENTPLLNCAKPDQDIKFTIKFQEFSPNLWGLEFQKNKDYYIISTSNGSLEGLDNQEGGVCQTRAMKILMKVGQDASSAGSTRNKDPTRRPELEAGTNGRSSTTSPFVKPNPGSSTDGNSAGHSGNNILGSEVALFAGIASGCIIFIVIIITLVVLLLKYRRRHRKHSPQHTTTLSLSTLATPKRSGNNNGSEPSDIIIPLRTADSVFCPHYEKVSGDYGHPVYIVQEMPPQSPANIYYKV

Tests used:
Assay in all cases: co-IP; anti-GFP antibody and agarose beads on lysate of A549 cells transfected with EphB1 wt/EGFP or EphB1 mutants/EGFP; IP buffer 20 mM Tris pH 7.5, 150 mM NaCl, 1% Nonidet P-40, 0.1% sodium deoxycholate; 4 °C overnight; western blot for EfnB2, p38 and p-p38; GFP null vector as negative control
[1] = target: EphB1 mutant that lacks the ligand-binding domain (LBDΔ), EGFP fusion (UniProt P54762)
[2] = target: EphB1 mutant that lacks the fibronectin type III domain (FNΔ), EGFP fusion (UniProt P54762)
[3] = target: EphB1 mutant that lacks the cysteine-rich region (CRDΔ), EGFP fusion (UniProt P54762)

Measured: binding

EfnB2 (EphrinB2) (from UniProt P52799 28-333) (ligand)
binds: [1] | [2] | [3]

These are yes or no findings as the source states them, for the method shown. In cells and extracts the contact can be indirect. Binding calls can cover weak binding; strength is not graded here.
